From article PMC5995851, “Conformational rearrangements of the C1 ring in KaiC measure the timing of assembly with KaiB” (Scientific Reports, 2018)
No constants are given. Whether binding was seen depends on the method and setting. Some entries that bind do so weakly or less than the wild type.

Biological target: KaiC1^S229W (C1-domain truncation of KaiC with S229W) (Synechococcus elongatus) (UniProt Q79PF4)
Experiment: crystal structure; KaiC1^S229W, reflections at 50-2.8 Å, 100 K, molecular replacement with 4TL7; both purified

B1: KaiC1^S229W (C1-domain truncation of KaiC with S229W) (domain or fragment, UniProt Q79PF4 1-254)
chain: MTSAEMTSPNNNSEHQAIAKMRTMIEGFDDISHGGLPIGRSTLVSGTSGTGKTLFSIQFLYNGIIEFDEPGVFVTFEETPQDIIKNARSFGWDLAKLVDEGKLFILDASPDPEGQEVVGGFDLSALIERINYAIQKYRARRVSIDSVTSVFQQYDASSVVRRELFRLVARLKQIGATTVMTTERIEEYGPIARYGVEEFVSDNVVILRNVLEGERRRRTLEILKLRGTWHMKGEYPFTITDHGINIFPLGAMRL
binding: binds
